Results taken from PubChem BioAssay AID2058 (Sanford-Burnham Center for Chemical Genomics, 2009).
The campaign covered roughly 290,000 compounds. About 150 (0.052%) were called active. This list was built around the results that the source calls inconclusive (neither active nor inactive); the mix of calls is not that of the screen.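 The calls were made as follows: active = inhibition of at least 50% with at least 30 cells and total cytoplasm GFP at most 10,000,000; inconclusive = under 30 cells or total GFP of 10,000,000 plus; inactive = the rest.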

By UniProt entry, the sequences of proteins in these tests, tags left out. Where a name states a change or a piece, a line headed by the entry shows the natural chain unless it says otherwise.
UniProt Q9HC97: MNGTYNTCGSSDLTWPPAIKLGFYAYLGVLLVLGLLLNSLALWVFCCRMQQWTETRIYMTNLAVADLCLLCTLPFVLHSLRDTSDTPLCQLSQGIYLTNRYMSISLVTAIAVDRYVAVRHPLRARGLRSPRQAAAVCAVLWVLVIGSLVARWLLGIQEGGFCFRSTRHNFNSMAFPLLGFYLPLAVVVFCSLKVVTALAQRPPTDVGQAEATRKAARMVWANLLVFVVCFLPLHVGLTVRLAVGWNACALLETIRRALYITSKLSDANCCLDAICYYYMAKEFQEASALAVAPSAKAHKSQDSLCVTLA

target: G-protein coupled receptor 35 (Homo sapiens) (UniProt Q9HC97); assay: GPR35 antagonists blocking zaprinast-driven arrestin recruitment, primary screen, imaging, U2OS, beta-arrestin-GFP, zaprinast agonist (AID 2058); conditions: U2OS GPR35 beta-arrestin-GFP translocation imaging, zaprinast antagonism; at 10 µM; active compounds read high

| SMILES | inhibition |
| --- | --- |
| COc1ccccc1-[n+]1c(C)cc(/C=C2\Sc3ccccc3N2C)cc1C | inconclusive: 120% |
| O=C(CCCN1C(=O)/C(=C\c2cccs2)SC1=S)Nc1cccc(C(=O)O)c1 | inactive: 0.3% |
| O=c1[nH]c(=O)c2nnc(N/N=C/c3ccccc3F)nc2[nH]1 | inconclusive: 125% |
| Cc1cc(C)nc(-n2nc(C)cc2NC(=O)CNC2CCCCC2)n1 | inconclusive: -8.6% |
| O=[N+]([O-])c1c(Nc2ccc(O)cc2)cc(Cl)c2nonc12 | active: 72.1% |
| O=C(COC(=O)c1ccccc1C(=O)N1CCN(c2ccccc2)CC1)NCc1ccccc1 | inconclusive: -6.4% |
| COc1ccccc1/C=C/C=N/n1c(-c2ccc(C)cc2)n[nH]c1=S | inconclusive: 5.7% |
| CCOC(=O)C1=C(C)N=C2SC(C(=O)OC)=CC(=O)N2C1c1cc(OC)c(OC)c(OC)c1 (stereo not given) | inconclusive: 6.7% |
| CCN1/C(=C\c2ccc3ccccc3[n+]2CC)Sc2cc(C)ccc21 | inconclusive: 112% |
| COc1ccc(NC(=O)c2noc3c2CCCCC3)cc1 | inconclusive: 16.5% |
| N=C1/C(=C\c2ccc(-c3ccc(C(=O)O)cc3)o2)C(=O)N=C2SC=C(c3ccccc3)N12 | inactive: 43% |
| CCN(CC)C(C(=O)Nc1ccc2c(c1)OCO2)c1ccccc1 (stereo not given) | inconclusive: 115% |
| O=P(CCO)(c1ccccc1)c1ccccc1 | inconclusive: -3.3% |
| O/N=C(\c1ccc(Cl)cc1Cl)c1ncc(C(F)(F)F)cc1Cl | inconclusive: 69% |
| Cc1cc(-c2nn(-c3ccccc3F)cc2CN(C)CC(O)CO)c(C)s1 (stereo not given) | active: 103% |
| CNc1ccccc(-c2ccc3ccccc3n2)c1=O | inconclusive: 118% |
| CCOc1ccc(/C=C/C(=O)c2ccc(-c3ccccc3)cc2)cc1 | inconclusive: -18.3% |
| Cc1cc(C(=O)COc2ccc3ccc(=O)oc3c2)c(C)n1Cc1cccs1 | inconclusive: -23.7% |
| Cn1cc(/C=C/c2cc[n+](C)cc2)c2cc(Cl)ccc21 | active: 54.7% |
| O=C1/C(=C\c2cc(Cl)c(O)c(Cl)c2)SC(=S)N1Cc1ccccc1 | inconclusive: 126% |
| CCN1/C(=C/C=C/c2oc3ccc4ccccc4c3[n+]2CC)Oc2ccc3ccccc3c21 | inconclusive: 121% |
| CCOC(=O)c1c(/N=C/N(C)C)sc(/C=N/Nc2ccccc2)c1-c1ccc(Cl)cc1 | inconclusive: 120% |
| CCN(CC)c1ccc(/C=c2/sc3nnc(-c4ccccc4C)n3c2=O)cc1 | inconclusive: 98.8% |
| CCOC(=O)CC1C(=O)NCCN1c1nc2c(C)cccn2c(=O)c1/C=C1\SC(=S)N(CC(C)C)C1=O (stereo not given) | active: 58.9% |
| C=CCn1c(SCC(=O)Nc2ccc(Cl)cn2)nnc1C1CC1 | inactive: -2.5% |
| COc1ccc(OC)c(N(CC(=O)Nc2ccc3c(c2)OCCO3)S(C)(=O)=O)c1 | inactive: -8.2% |
| CCOC(=O)N1CC=C2C(C#N)=C(N)C(C#N)(C#N)[C@H](c3ccc(OCC)c(OCC)c3)[C@H]2C1 | inactive: -0.6% |
| Cn1c(=O)c(NC2CCCCC2)c2c3c(cccc31)C(=O)c1ccccc1-2 | inconclusive: 102% |

In the list so far, 14 have sulfur:

| SMILES | inhibition |
| --- | --- |
| COc1ccccc1-[n+]1c(C)cc(/C=C2\Sc3ccccc3N2C)cc1C | inconclusive: 120% |
| O=C(CCCN1C(=O)/C(=C\c2cccs2)SC1=S)Nc1cccc(C(=O)O)c1 | inactive: 0.3% |
| COc1ccccc1/C=C/C=N/n1c(-c2ccc(C)cc2)n[nH]c1=S | inconclusive: 5.7% |
| CCOC(=O)C1=C(C)N=C2SC(C(=O)OC)=CC(=O)N2C1c1cc(OC)c(OC)c(OC)c1 (stereo not given) | inconclusive: 6.7% |
| CCN1/C(=C\c2ccc3ccccc3[n+]2CC)Sc2cc(C)ccc21 | inconclusive: 112% |
| N=C1/C(=C\c2ccc(-c3ccc(C(=O)O)cc3)o2)C(=O)N=C2SC=C(c3ccccc3)N12 | inactive: 43% |
| Cc1cc(-c2nn(-c3ccccc3F)cc2CN(C)CC(O)CO)c(C)s1 (stereo not given) | active: 103% |
| Cc1cc(C(=O)COc2ccc3ccc(=O)oc3c2)c(C)n1Cc1cccs1 | inconclusive: -23.7% |
| O=C1/C(=C\c2cc(Cl)c(O)c(Cl)c2)SC(=S)N1Cc1ccccc1 | inconclusive: 126% |
| CCOC(=O)c1c(/N=C/N(C)C)sc(/C=N/Nc2ccccc2)c1-c1ccc(Cl)cc1 | inconclusive: 120% |
| CCN(CC)c1ccc(/C=c2/sc3nnc(-c4ccccc4C)n3c2=O)cc1 | inconclusive: 98.8% |
| CCOC(=O)CC1C(=O)NCCN1c1nc2c(C)cccn2c(=O)c1/C=C1\SC(=S)N(CC(C)C)C1=O (stereo not given) | active: 58.9% |
| C=CCn1c(SCC(=O)Nc2ccc(Cl)cn2)nnc1C1CC1 | inactive: -2.5% |
| COc1ccc(OC)c(N(CC(=O)Nc2ccc3c(c2)OCCO3)S(C)(=O)=O)c1 | inactive: -8.2% |

Pulled by compound from above:

| SMILES | inhibition |
| --- | --- |
| Cn1cc(/C=C/c2cc[n+](C)cc2)c2cc(Cl)ccc21 | active: 54.7% |
| O=P(CCO)(c1ccccc1)c1ccccc1 | inconclusive: -3.3% |

Further compounds.

| SMILES | inhibition |
| --- | --- |
| O=c1c(Cl)c(Cl)cnn1Cc1ccc(F)cc1 | inactive: 49.1% |
| COCCNC(=O)C1Cc2c(ccc3ccccc23)O1 (stereo not given) | inconclusive: 27.7% |
| CCC(=O)N1c2ccc(S(=O)(=O)NCCc3ccc(C)cc3)cc2CC1C (stereo not given) | inconclusive: -3.7% |
| CCCCc1ccc(/C=C2\C(=O)c3ccccc3C(O)=C2C(=O)OCC)cc1 | active: 59% |
| COc1cccc(CC(=O)Nc2nc3ccccc3[nH]2)c1 | inconclusive: 3% |
| Cc1cc(C)c(NC(=O)NC2CCCCC2)c(C)c1 | inactive: -0.9% |
| CCN(CC)c1ccc(/C=c2\sc3nnc(-c4ccccc4Cl)n3c2=O)cc1 | inconclusive: 78.8% |
| O=C(Nc1cccc(Cl)c1)Nc1ccccc1-n1ccnc1 | inconclusive: 113% |
| COc1cc(C#N)ccc1OCC(=O)N1CCc2ccccc2C1 | inactive: 10.3% |
| C=CCn1c(=O)c2ccccc2n2c(SCC(=O)Nc3sc(C(=O)N(CC)CC)c(C)c3C(=O)OCC)nnc12 | inconclusive: -4.2% |
| CC1=C(C(=O)Nc2ccc(Cl)cc2C(=O)N2CCC(C(N)=O)CC2)SCCO1 | inactive: 16.5% |
| C/C=C/C(=O)Nc1ccc(N2CCN(c3ccc(C(F)(F)F)cn3)CC2)nc1 | inconclusive: 121% |
| O=C(c1ccncc1)c1ccc([N+](=O)[O-])cc1 | inconclusive: -10.2% |
| CCC(C)N1C(=O)/C(=C/c2c(NCCCOC(C)C)nc3c(C)cccn3c2=O)SC1=S (stereo not given) | inconclusive: 28.8% |
| N#C/C(=C/c1ccc(N2CCCCCC2)o1)c1ccc(Cl)cc1 | active: 87.6% |
| CCN(CC)c1ccc(/C=C(\C#N)c2nc(-c3cccs3)c(NC(C)=O)s2)cc1 | active: 70.6% |
| O=C(CCCN1C(=O)/C(=C/c2ccccc2)SC1=S)Nc1cccc(O)c1 | inactive: -8.3% |
| Cc1ccc2nc(-c3ccccc3N)[nH]c2c1 | inconclusive: -3.1% |
| Cc1oc(=O)c(NC(=O)c2cccc(Cl)c2)cc1C(=O)c1ccccc1 | inactive: -3% |
| CSc1nc2ccccc2cc1/C=C(\C#N)c1cccc(C)c1 | active: 55.3% |
| C=CCSc1n[nH]c(-c2cccs2)n1 | inactive: 13.6% |
| CC(=O)N1C=Cc2c(c(C)c3c([nH]c4ccccc43)c2C)C1 | active: 71.5% |
| CC(=O)Nc1sc(/C(C#N)=C\c2cccc(Cl)c2)nc1-c1ccc(C)cc1 | inactive: 18.1% |
| CCOC(=O)c1c(-c2ccc(C)cc2)csc1NC(=O)/C(C#N)=C/c1ccc(O)c(OC)c1 | inactive: 2.7% |
| CCN1/C(=C/c2ccc3cc(C)ccc3[n+]2CC)Sc2cc(C)c(C)cc21 | inconclusive: 111% |
| CNC(=S)NCCc1ccc(OC)cc1 | inconclusive: 119% |
| CC1OC(O[C@H]2CC[C@]3(C)C4C=C[C@]56OC[C@@]7(CC[C@@H](C)[C@H](C)C75)[C@H](O)C[C@@]6(C)[C@]4(C)CC[C@H]3C2(C)C)C(OC2OC(CO)C(O)C(O)C2OC2OCC(O)C(O)C2O)C(O)C1O (stereo not given in full) | inconclusive: 28.5% |
